# This is one part of the list. Many values rest on one well or one pass, so single values are uncertain.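 Imaging used 1,536-well plates; nuclei positive for cleaved PARP by antibody were divided by total DNA-stained nuclei to yield the apoptosis fraction. Doses for screening kept most cells viable, and cell lines differ markedly in resting and induced cleaved-PARP levels.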
# Tested on: COLO792
# Test: cleaved PARP positive nuclei fraction relative to DMSO control; melanoma cells; higher = more apoptosis
# Conditions: library dose: low library concentration; 72 h
row,SMILES,cleaved PARP positive nuclei fraction [%]
1,"Cc1cn(-c2cc(NC(=O)c3ccc(C)c(Nc4nccc(-c5cccnc5)n4)c3)cc(C(F)(F)F)c2)cn1 [nilotinib] + CN(c1ncccc1CNc1nc(Nc2ccc3c(c2)CC(=O)N3)ncc1C(F)(F)F)S(C)(=O)=O [PF562271] (first compound 0.2 µM, partner dose 0.08 µM)",46.6
2,"CC[C@]1(O)C[C@H]2CN(CCc3c([nH]c4ccccc34)[C@@](C(=O)OC)(c3cc4c(cc3OC)N(C=O)[C@H]3[C@@](O)(C(=O)OC)[C@H](OC(C)=O)[C@]5(CC)C=CCN6CC[C@]43[C@@H]65)C2)C1 [vincristine] + COCC[n+]1c2c(n(Cc3cnccn3)c1C)C(=O)c1ccccc1C2=O [YM155] (first compound 0.0001 µM, partner dose 0.0004 µM)",124
3,"Cc1cn(-c2cc(NC(=O)c3ccc(C)c(Nc4nccc(-c5cccnc5)n4)c3)cc(C(F)(F)F)c2)cn1 [nilotinib] + O=C(O)[C@@H]1[O][Sb](=[O])([O][Sb]2(=[O])[O][C@H]([C@H](O)CO)[C@H](O)[C@H](C(=O)O)[O]2)[O][C@H]([C@H](O)CO)[C@@H]1O [stibogluconate] (first compound 0.2 µM, partner dose 2 µM)",56.5
4,"COc1cc([C@@H]2c3cc4c(cc3[C@@H](O[C@@H]3O[C@@H]5CO[C@@H](C)O[C@H]5[C@H](O)[C@H]3O)[C@H]3COC(=O)[C@H]23)OCO4)cc(OC)c1O [etoposide] + CCCCCCCCCCCCCCCCCCOP(=O)([O-])OC1CC[N+](C)(C)CC1 [Perifosine] (first compound 0.02 µM, partner dose 0.4 µM)",51.5
